From patent US20160115234A1 (Biogen, published 2016)
These are yes or no findings as the source states them, for the method shown. Some binding calls cover weakened binding; strength is not graded here.

Amino acid sequences for entries named in this document (tags omitted). A change or cut given only in a name is not applied to a line headed by its entry.
UniProt P08514: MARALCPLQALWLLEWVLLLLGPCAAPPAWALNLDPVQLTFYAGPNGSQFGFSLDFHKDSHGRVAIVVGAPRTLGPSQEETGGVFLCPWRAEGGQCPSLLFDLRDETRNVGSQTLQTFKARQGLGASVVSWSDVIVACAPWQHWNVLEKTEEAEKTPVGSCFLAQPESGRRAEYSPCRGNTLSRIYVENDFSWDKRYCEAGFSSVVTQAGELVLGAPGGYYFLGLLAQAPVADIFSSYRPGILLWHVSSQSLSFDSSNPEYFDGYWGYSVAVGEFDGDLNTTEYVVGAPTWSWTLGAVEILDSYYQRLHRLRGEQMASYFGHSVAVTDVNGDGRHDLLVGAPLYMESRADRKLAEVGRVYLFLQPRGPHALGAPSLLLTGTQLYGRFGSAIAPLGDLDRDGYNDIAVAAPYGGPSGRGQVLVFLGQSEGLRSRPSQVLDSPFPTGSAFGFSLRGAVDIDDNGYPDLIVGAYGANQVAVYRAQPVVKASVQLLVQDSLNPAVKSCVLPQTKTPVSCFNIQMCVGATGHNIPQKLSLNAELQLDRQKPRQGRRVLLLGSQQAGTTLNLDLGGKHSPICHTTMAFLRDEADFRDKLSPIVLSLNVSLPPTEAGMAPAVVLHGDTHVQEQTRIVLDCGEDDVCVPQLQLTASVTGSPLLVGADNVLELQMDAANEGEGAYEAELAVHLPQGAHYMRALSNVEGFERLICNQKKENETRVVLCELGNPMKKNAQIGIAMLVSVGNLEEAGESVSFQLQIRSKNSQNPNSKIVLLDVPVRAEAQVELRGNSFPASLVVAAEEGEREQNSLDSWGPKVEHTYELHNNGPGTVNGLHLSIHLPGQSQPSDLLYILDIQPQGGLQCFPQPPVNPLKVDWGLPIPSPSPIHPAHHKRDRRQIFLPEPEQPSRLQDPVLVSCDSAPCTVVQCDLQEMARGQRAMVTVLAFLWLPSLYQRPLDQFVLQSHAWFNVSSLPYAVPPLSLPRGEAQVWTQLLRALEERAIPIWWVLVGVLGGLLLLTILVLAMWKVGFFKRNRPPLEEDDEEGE

Target: human GPIIb/IIIa (Calbiochem Cat No. 528240) (human) (UniProt P08514)
Assay: ELISA, hybridoma supernatant

Row | Binder | binding
1 | 34D10 (antibody, V domains shown, Mouse hybridoma monoclonal tested as supernatant) VH: EVKLVESGGGLVKPGGSLKLSCAASGFTFSAYAMSWVRQTPEKRLEWVASISSGGTTYYPDSVKRRFTISRDNARNILYLQMSSLRSEDTAMYYCTRGGDYGYALDYWGQGTSVTVSS VL: ENVLTQSPAIMSASLGEKVTMSCRASSSVNYMYWYQQKSDASPKLWIYYTSNLAPGVPARFSGSGSGNSYSLTISSMEGEDAATYYCQQFSSSPWTFGGGTKLEIKR | binds
2 | 1H6 (antibody, V domains shown, Mouse hybridoma monoclonal tested as supernatant) VH: QVQLQQSGAELVRPGTSVKVSCKASGYAFTNYLIEWVKQRPGQGLEWIGVINPGSGGTNYNEKFKGKATLTADKSSSTAYMHLSSLTSDDSAVYFCARGRYEWYFDVWGAGTTVTVSS VL: DIQMTQTTSSLSASLGDRVTISCRASQDITNYLNWYQRKPDGTVKLLIYYTSRLHSGVPSRFSGSGSGTDYSLTISNLEQEDIATYFCQQGYTLPYTFGGGTKLEIKR | binds
